# Measurements from publication PMC8113560.
# Amino acid sequences for entries named in this document (tags omitted). Residues count along the entry.
# UniProt P35249: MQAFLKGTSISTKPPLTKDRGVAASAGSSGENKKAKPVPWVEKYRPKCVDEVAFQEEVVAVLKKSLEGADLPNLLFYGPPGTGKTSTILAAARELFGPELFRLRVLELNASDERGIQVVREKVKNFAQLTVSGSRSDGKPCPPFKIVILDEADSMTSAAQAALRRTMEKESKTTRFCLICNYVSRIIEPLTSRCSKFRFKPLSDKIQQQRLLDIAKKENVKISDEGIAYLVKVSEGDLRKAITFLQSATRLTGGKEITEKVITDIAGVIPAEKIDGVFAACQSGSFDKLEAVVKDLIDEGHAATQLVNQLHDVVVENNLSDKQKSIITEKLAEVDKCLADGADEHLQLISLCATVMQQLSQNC
# UniProt P46531, residues 1754-2555: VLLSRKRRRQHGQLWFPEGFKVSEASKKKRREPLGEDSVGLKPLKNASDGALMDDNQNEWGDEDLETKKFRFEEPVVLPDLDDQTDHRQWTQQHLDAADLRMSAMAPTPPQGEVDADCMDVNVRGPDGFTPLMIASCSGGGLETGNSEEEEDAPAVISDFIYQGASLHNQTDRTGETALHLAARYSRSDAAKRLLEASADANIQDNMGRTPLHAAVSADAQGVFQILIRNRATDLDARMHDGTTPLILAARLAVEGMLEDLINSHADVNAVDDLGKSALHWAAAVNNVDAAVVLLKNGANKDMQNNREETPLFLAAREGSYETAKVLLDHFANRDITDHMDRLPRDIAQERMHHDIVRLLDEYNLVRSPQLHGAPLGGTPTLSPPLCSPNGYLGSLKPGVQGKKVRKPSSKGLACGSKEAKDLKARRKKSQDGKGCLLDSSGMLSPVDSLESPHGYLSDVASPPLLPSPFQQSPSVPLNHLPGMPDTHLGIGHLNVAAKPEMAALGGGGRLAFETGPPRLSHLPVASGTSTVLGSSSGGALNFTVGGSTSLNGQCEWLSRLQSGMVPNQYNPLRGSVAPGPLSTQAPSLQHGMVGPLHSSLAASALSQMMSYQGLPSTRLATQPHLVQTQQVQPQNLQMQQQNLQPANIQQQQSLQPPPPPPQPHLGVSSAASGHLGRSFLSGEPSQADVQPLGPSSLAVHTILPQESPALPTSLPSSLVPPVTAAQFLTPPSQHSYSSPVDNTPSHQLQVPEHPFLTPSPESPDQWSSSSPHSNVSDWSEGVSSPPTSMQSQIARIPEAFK
# Results are given in words; binding and its absence hold for the method and conditions named. Binding seen in cells or lysates may run through a third protein. These calls come from enrichment with a bait or labelling near it, and not all partners need be listed.
# Target: FLAG-tagged RFC4 (UniProt P35249)
# Assay: affinity purification with mass spectrometry; anti-FLAG affinity purification from lysates of A549 cells transfected with FLAG-tagged RFC4; indicated gel bands subjected to MS
substance,measurement,value
endogenous Notch1 intracellular domain (NICD1) (from UniProt P46531 1754-2555) (domain or fragment),binding,binds
